Results deposited as PubChem BioAssay AID504764 (Drosophila RNAi Screening Center, 2011)
The deposit covers about 22,000 reagents; shown is an unselected part of those with a known target gene and a result. Over the whole deposit, 403 (1.9%) are marked active. 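Unnormalised raw counts per well; ratio z-scores behind the hit calls and whether each hit raises or lowers signal are not deposited.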 A plus sign joins genes that one reagent is predicted to hit. Not given: the amount of reagent.

Assay: 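Genes whose knock-down alters Notch-dependent transcription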 (primary screen)
Cell system: Drosophila Kc167 cells
Reagents: long dsRNA against Drosophila genes
Timing: about 5 days (4 days dsRNA, then 24 h after transfection)
Challenge: transfection of constitutively active membrane-tethered Notch lacking the extracellular domain, read 24 h later
Measured: 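Firefly luciferase from an E(spl)m3 reporter with active Notch, plus control-promoter and uninduced reporter wells for normalisation; unnormalised counts, duplicate wells a and b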
Reading the numbers: induced reporter light, run 1, well a and induced reporter light, run 1, well b: higher = more light from the Notch target reporter with active Notch; control promoter light, run 1, well a and control promoter light, run 1, well b: higher = more light from the viral control promoter (cell number, transfection, viability); uninduced reporter light, run 1, well a: higher = more light from the Notch target reporter without active Notch
Hit rule: 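Wells with low control signal or poorly matching duplicates excluded; duplicates averaged; per source plate, z beyond ±2 for induced/control log2 ratio or beyond ±1.8 for induced/uninduced marks a hit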
Meaning of the calls: active = modifier hit (raised or lowered Notch signal); inactive = not a hit

no.	predicted target	dsRNA	induced reporter light, run 1, well a	induced reporter light, run 1, well b	control promoter light, run 1, well a	control promoter light, run 1, well b	uninduced reporter light, run 1, well a	outcome
1	Atg13	DRSC16228	1.09e5	1.35e5	99940	83705	9140	inactive
2	Dh44-R1	DRSC07172	90785	1.02e5	71950	84880	8115	inactive
3	RhoGAP18B	DRSC19763	71090	1.13e5	92975	1.13e5	9705	inactive
4	RhoGAP18B	DRSC20047	81445	72635	1.02e5	1.24e5	10035	inactive
5	RhoGAP18B	DRSC20048	28670	34665	16395	25795	8950	inactive
6	RhoGAP18B	DRSC20049	34715	48135	35150	61180	7380	inactive
7	CG40378 (retired record)	DRSC20958	2.55e5	2.14e5	3.39e5	3.56e5	19560	inactive
8	CG13601	DRSC14604	50	100	245	760	50	inactive
9	CG4328	DRSC10410	11795	10838	20560	14630	5065	inactive
10	CG33235	DRSC19641	1.12e5	1.54e5	2.01e5	1.90e5	7680	inactive
11	Osi20	DRSC12568	1.07e5	1.06e5	1.08e5	88480	7905	inactive
12	mRpS17	DRSC04463	2.24e5	1.80e5	2.07e5	1.96e5	13220	inactive
13	Tep3	DRSC03452	1.48e5	1.82e5	2.11e5	2.23e5	8965	inactive
14	enok	DRSC04096	1.03e5	1.07e5	80350	80320	6930	inactive
15	Peritrophin-A	DRSC20570	1.22e5	1.16e5	1.01e5	49555	8610	inactive
16	Alp2	DRSC04354	72115	42060	49350	66780	3350	inactive
17	Galphaf	DRSC11171	1.92e5	1.93e5	2.11e5	2.37e5	10240	inactive
18	Drat	DRSC06600	2.09e5	1.46e5	1.56e5	1.74e5	17010	inactive
19	crc	DRSC03513	73695	48525	71110	59250	5650	inactive
20	Drsl2	DRSC08160	1.25e5	98520	1.48e5	1.55e5	7530	inactive
21	Or22a	DRSC00764	1.17e5	1.03e5	1.06e5	63105	10900	inactive
22	CG42319	DRSC06645	90895	95650	1.09e5	85315	8405	inactive
23	CG42319	DRSC06646	82350	1.18e5	1.12e5	1.14e5	9780	inactive
24	CG15822	DRSC08482	1.18e5	1.25e5	2.06e5	1.59e5	8495	inactive
25	CG15822	DRSC08483	1.20e5	1.32e5	1.76e5	2.09e5	4932	inactive
26	Fkbp14	DRSC04615	1.51e5	1.76e5	1.25e5	1.35e5	12695	inactive
27	Obp19c	DRSC20528	1.31e5	1.29e5	1.67e5	1.74e5	14665	inactive
28	Nepl18	DRSC14879	1.60e5	1.54e5	2.18e5	2.05e5	15950	inactive
29	GATAe	DRSC14223	1.15e5	89565	1.03e5	1.18e5	12020	inactive
30	Mkp + CG34140	DRSC08585	55475	67830	64495	82790	4635	active
31	Naxe	DRSC18251	1.32e5	1.54e5	2.31e5	1.94e5	10510	inactive
32	CR42548	DRSC09514	1.75e5	1.61e5	2.22e5	2.76e5	16750	inactive
33	vir-1	DRSC02501	1.56e5	1.74e5	1.71e5	1.95e5	13980	inactive
34	vir-1	DRSC02863	83085	91055	1.21e5	1.24e5	7445	inactive
35	CG42249	DRSC19383	1.14e5	1.41e5	2.08e5	2.00e5	8960	inactive
36	CG42249	DRSC19826	1.04e5	90630	1.21e5	1.16e5	6975	inactive
37	side-II	DRSC01427	85705	1.04e5	73595	71370	9060	inactive
38	side-II	DRSC01429	82880	64125	73440	74075	8415	inactive
39	side-II	DRSC01913	1.10e5	1.14e5	1.12e5	1.37e5	8665	inactive
40	side-II	DRSC01932	1.45e5	1.46e5	1.55e5	1.66e5	14375	inactive
41	side-II	DRSC02480	1.43e5	1.32e5	1.44e5	1.52e5	12115	inactive
42	side-II	DRSC22508						inactive
43	spz3	DRSC02391	1.35e5	1.60e5	1.06e5	1.47e5	21270	inactive
44	spz3	DRSC03008	1.05e5	1.28e5	58880	62810	16950	inactive
45	CG42735 (retired record)	DRSC00921	1.26e5	1.01e5	1.53e5	1.68e5	8395	inactive
46	CG7724	DRSC10905	1.20e5	1.28e5	91810	98165	8888	inactive
47	ND-42	DRSC16754	1.05e5	84710	1.38e5	1.33e5	8432	inactive
48	fliI	DRSC20578	1.74e5	1.72e5	3.25e5	2.87e5	15125	inactive
49	CG15625	DRSC00460	72530	69285	73695	58490	4165	inactive
50	Cht10	DRSC03766	47330	65285	58255	41370	3365	inactive
51	Cht10	DRSC03767	2.08e5	2.21e5	2.03e5	1.82e5	14855	inactive
52	Cht10	DRSC03768	52395	44790	46315	32860	3130	inactive
